# Measurements taken from PubChem BioAssay AID504467 (National Center for Advancing Translational Sciences (NCATS), 2011).
# The whole screen tested about 330,000 compounds, of which about 7,700 (2.3%) were called active. The shares of active, inactive and inconclusive entries below differ from those in the screen. Calls follow the shape of the dose curve; as a rule, active = well fitted inhibition curve with a large enough effect; inconclusive = small, poorly fitted or top-dose-only effect, or effect the other way; inactive = flat fitted curve, though single readings scatter. Potencies beside an inconclusive call are fits to weak or partial responses and may not hold up.
# Test: qHTS screen for small molecules that inhibit ELG1-dependent DNA repair in human embryonic kidney (HEK293T) cells expressing luciferase-tagged ELG1; also: nearly all actives have a fitted effect of over 55% in size
# Conditions: HEK293T ELG1-luciferase reporter, luminescence, 16 h, DNA damage induced by 5-fluorouridine; activity change, negative = inhibition: at 46.1 µM (top of the series)
# How it was run: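 Step one: seed 2,000 cells per well. Step two: pin-transfer compound or DMSO alongside 5-fluorouridine. Step three: incubate 16 hr, 37 °C, 5% CO2. Step four: add ONE-Glo, wait 30 min, read luminescence.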
# % is scaled to controls: 0 for no effect and ±100 for the full control effect; potency is read from the fitted curve at half-maximal effect.
SMILES,Potency,"activity change, negative = inhibition"
CC1(C)C(=O)Nc2ccccc2N1C(=O)COC(=O)c1ccc(NC(N)=O)cc1,inactive,–
CN(C)C(=O)Nc1cnc2ccccc2c1,"inconclusive: 8.2 µM [activator, partial curve, poor fit]",–
CC1=CC2=NC(=O)/C(=C\c3cccn3CCOc3cc(C)cc(C)c3)C(=N)N2O1,active: 20.6 µM,–
O=[N+]([O-])c1cc(C(F)(F)F)cc([N+](=O)[O-])c1NCCN1CCNCC1,inactive,–
COc1ccc(NC(=O)N(C)C[C@H]2Oc3ccc(NS(=O)(=O)c4cccs4)cc3C(=O)N([C@@H](C)CO)C[C@@H]2C)cc1,inactive,–
Cc1csc(NC(=O)c2nn(C)c(C)c2[N+](=O)[O-])n1,"inconclusive: 16.4 µM [activator, single point]",–
CC1CCC(NS(=O)(=O)c2ccc(Cl)s2)CC1 (configuration not stated),inactive,–
Cc1ccc(OCC(=O)NNC(=O)c2cccnc2)cc1C,inactive,–
CCCn1nc2cc(C(=O)NCCc3cccs3)ccc2c1OCC,"inconclusive: 2.59 µM [activator, full curve]",–
O=C1c2oc3ccc(F)cc3c(=O)c2C(c2ccccc2)N1CC1CCCO1 (configuration not stated),"inconclusive: 29.1 µM [inhibitor, single point]",–
Cc1ccc(CONC(=O)c2ccc(C)cc2)cc1,"inconclusive: 18.3 µM [activator, partial curve]",–
NS(=O)(=O)c1ccc(CCNC(=O)c2ccc(Cl)nc2)cc1,inactive,–
CCn1c(-c2cc(-c3cc(OC)ccc3OC)nc3ccccc23)n[nH]c1=S,active: 6.51 µM,–
COc1ccc(-c2oc3ccccc3c2C(=O)OCc2ccc([N+](=O)[O-])cc2)cc1,"inconclusive: 4.61 µM [activator, single point]",–
CCC(=O)NCCCCCCCCCNC(=O)CC,"inconclusive: 18.4 µM [activator, partial curve, poor fit]",–
O=C(COC(=O)c1cnc(Cl)c(Cl)c1)Nc1cccc(S(=O)(=O)N2CCOCC2)c1,inactive,–
CCC(C)Nc1nc2c(c(=O)n(C)c(=O)n2C)n1Cc1ccc(Cl)cc1 (configuration not stated),"inconclusive: 18.3 µM [inhibitor, single point]",–
CC(C)=C[C@@H]1C[C@H](C)[C@H]2CC[C@H](C)c3c(O[C@@H]4O[C@@H](C)[C@@H](O)[C@@H](O)[C@@H]4O)c(O)c(C)c1c32,"inconclusive: 18.3 µM [activator, single point]",–
O=C(COc1ncnc2cc(Cl)ccc12)c1ccccc1,"inconclusive: 23.1 µM [activator, single point]",–
Cc1ccc(Cl)c(NC(=O)COC(=O)c2nn(-c3ccccc3)cc2O)c1Cl,"inconclusive: 29.1 µM [inhibitor, single point]",–
Fc1ccc(CNC(=S)NC2CCCCC2)cc1,"inconclusive: 23.1 µM [inhibitor, partial curve, poor fit]",–
Cc1ccc(N=Nc2ccc3ccccc3c2O)cc1,"inconclusive: 0.366 µM [activator, full curve]",–
CN1CCN(S(=O)(=O)c2ccc(NC(=O)c3csc4ccccc34)cc2)CC1,"inconclusive: 18.4 µM [activator, single point]",–
Cc1ccccc1-c1nc2sc3c(c2c(=O)n1N)CCCC3,"inconclusive: 4.11 µM [activator, partial curve]",–

# Full records as entered above:
# O=C(COc1ncnc2cc(Cl)ccc12)c1ccccc1 as listed: Potency: inconclusive: 23.1 µM [activator, single point]
# CCC(=O)NCCCCCCCCCNC(=O)CC as listed: Potency: inconclusive: 18.4 µM [activator, partial curve, poor fit]

# Next entries:

SMILES,Potency,"activity change, negative = inhibition"
Cc1c(OCC(=O)N2CCC(C(=O)NCCCC(=O)O)CC2)ccc2c1oc(=O)c1ccccc12,"inconclusive: 0.0651 µM [activator, full curve, poor fit]",–
Cc1ccc(C=Nc2cc([N+](=O)[O-])ccc2C)s1,inactive,–
CN(C)c1ccc(/C=N/OC(=O)Nc2ccccc2Cl)cc1,"inconclusive: 13 µM [activator, partial curve]",–
Cc1noc(C)c1CSc1nc2[nH]ncc2c(=O)n1-c1ccccc1,"inconclusive: 11.6 µM [activator, partial curve, poor fit]",–
C/C(=N\NC(=O)c1ccccn1)c1ccc(Cl)cc1,"inconclusive: 2.91 µM [activator, full curve]",–
CCOc1cccc(-c2nnc3n2N=C(c2cc(OC)ccc2OC)CS3)c1,active: 5.17 µM,–
COCCCNC(=S)N/N=C/c1ccc2c(c1)OCO2,"inconclusive: 7.3 µM [activator, partial curve]",–
CCS(=O)(=O)CCSc1nc(C)cc(C)c1C#N,inactive,–
NC(=O)CSc1nc(N)c2c3c(sc2n1)CCCCC3,"inconclusive: 20.6 µM [activator, partial curve]",–
c1ccc(Oc2cc(-c3ccccc3)ncn2)cc1,"inconclusive: 16.4 µM [activator, partial curve]",–
O=S(=O)(c1ccc2ccccc2c1)N1CCOCC1,"inconclusive: 16.4 µM [activator, partial curve, poor fit]",–
COC(=O)Cn1c(=O)n(CCc2ccccc2)c(=O)c2c3c(sc21)CCCC3,inactive,–
CC(C)(C)Cc1nnc(NC(=O)CN2C(=O)c3ccccc3C2=O)s1,inactive,–
Cc1ccc(-n2nc3c(N4CCC(C(=O)NCCc5cccs5)CC4)nnc(C)c3c2C)cc1,"inconclusive: 9.2 µM [inhibitor, partial curve, poor fit]",–
COc1ccc(NC(=O)/C(=C\c2ccc3c(c2)OCO3)NC(C)=O)cc1,"inconclusive: 18.4 µM [activator, single point]",–
CC(C)Cn1c(N)c(C(=O)COC(=O)c2cc(F)cc(F)c2)c(=O)n(C)c1=O,active: 18.3 µM,–
COc1ccc(-c2noc(N(C)CC(=O)Nc3cccc(C(F)(F)F)c3)n2)cc1,"inconclusive: 0.259 µM [activator, single point]",–
CCOc1ccc(OCCCC(=O)N(C)CC(=O)Nc2ccccc2Br)cc1,inactive,–
COc1ccccc1NCCC(=O)OCC(=O)Nc1ccccc1F,"inconclusive: 5.17 µM [activator, single point]",–
CCCCC1(CC(=O)OCC)C(=O)N(c2ccccc2)N(c2ccccc2)C1=O,inactive,–
CCOc1ccc(NC(=S)NC(C)CCc2ccccc2)cc1 (configuration not stated),"inconclusive: 29.1 µM [inhibitor, partial curve, poor fit]",–
COc1ccc(-c2cc(C(F)(F)F)nc(SCc3cccc(C(=O)O)c3)n2)cc1,inactive,–
Cc1ccc(C(=O)OCC(=O)Nc2cc(C(C)(C)C)no2)c(C)c1,inactive,–
O=C(c1ccc(Cn2c(=O)[nH]c3ccccc3c2=O)cc1)N1CCN(c2ccc(F)cc2)CC1,active: 18.4 µM,–

SMILES,Potency,"activity change, negative = inhibition"
Cc1ccc(C(=O)Nc2ncc3c(Cl)cccc3n2)cc1,–,inconclusive: 59% [activator]
CCCCN(C)S(=O)(=O)c1cc(Br)cc2c1N(C(=O)C1CC1)CC2,"inconclusive: 25.9 µM [inhibitor, single point]",–
CN1C(=O)c2cccc3c(S(=O)(=O)Nc4ccccc4F)ccc1c23,"inconclusive: 29.1 µM [activator, single point]",–
Cc1cc(C)c(S(=O)(=O)N2CCC(C(=O)OCc3c(C)noc3C)CC2)c(C)c1,inactive,–
O=C(Nc1ccccc1)c1cc(-n2cnnc2)ccc1Cl,inactive,–
COC(=O)c1ccc(N=Cc2c(C(F)(F)F)[nH][nH]c2=O)cc1,"inconclusive: 25.9 µM [activator, single point]",–
O=C(NC(=S)NCc1ccccc1)c1cccs1,"inconclusive: 4.11 µM [activator, full curve, poor fit]",–
Cn1c(-c2ccc(Cl)cc2)cnc1NCc1cc2c(cc1[N+](=O)[O-])OCO2,inactive,–
COc1ccc(NC(=S)Nc2ccc(C)c(S(=O)(=O)N3CCCCC3)c2)cc1,inactive,–
CC(C)CN(C(=O)c1ccc(=O)n(C)n1)c1nc2ccccc2s1,"inconclusive: 10.3 µM [activator, partial curve]",–
Cc1ccc(/C([O-])=C(/C(=S)NCCN2CCOCC2)[n+]2ccccc2)cc1[N+](=O)[O-],inactive,–
CCOC(=O)c1ccc(NC(=O)c2nc[nH]c2C(=O)NCCCCCNC(=O)OC(C)(C)C)cc1,active: 16.4 µM,–
CN1CCN(C/C(=C2/N=C(c3ccccc3)OC2=O)N(C)C)CC1,inactive,–
Cc1ccc(NC(=S)N2CCOCC2)cc1,"inconclusive: 18.4 µM [activator, partial curve]",–
Cc1c(/C(O)=C2/C(=O)C(=O)N(CCN3CCOCC3)C2c2ccccn2)cnn1-c1ccccc1 (configuration not stated),"inconclusive: 3.66 µM [activator, full curve]",–
Cc1ccc(N(CC(=O)NC2CCCCC2)C(=O)c2ccc(C)s2)cc1,inactive,–
Cc1cc(C)cc(NC(=O)CCCCCN2C(=O)[C@@H]3Cc4ccccc4CN3C2=O)c1,inactive,–
Cc1nc(Cl)sc1C(=O)Nc1cccc(Cl)c1,inactive,–
OCC#CCSc1nnc(-c2cccc3ccccc23)o1,"inconclusive: 14.6 µM [activator, partial curve, poor fit]",–
Cc1ccc(S(=O)(=O)N2CCOCC2)cc1NC(=O)COC(=O)C1(C)CC1(Cl)Cl (configuration not stated),"inconclusive: 1.83 µM [inhibitor, partial curve]",–
COc1ccc(CNC(=O)c2cnn3c(C(F)F)cc(C)nc23)cc1OC,"inconclusive: 11.6 µM [inhibitor, partial curve]",–
CN(C)c1ccc(/C=N\NC(=O)c2ccc(Cn3cc(Cl)cn3)cc2)cc1,"inconclusive: 23.1 µM [inhibitor, partial curve, poor fit]",–
CCOC(=O)c1ccc(NC(=O)c2cn(CCC#N)nc2-c2ccc3c(c2)OCCO3)cc1,active: 14.6 µM,–
O=[N+]([O-])c1cccc(S(=O)(=O)NC2CC3CCC2C3)c1 (configuration not stated),inactive,–

# Pulled one by one from the entries so far (2):
SMILES,Potency,"activity change, negative = inhibition"
Cc1ccc(S(=O)(=O)N2CCOCC2)cc1NC(=O)COC(=O)C1(C)CC1(Cl)Cl (configuration not stated),"inconclusive: 1.83 µM [inhibitor, partial curve]",–
OCC#CCSc1nnc(-c2cccc3ccccc23)o1,"inconclusive: 14.6 µM [activator, partial curve, poor fit]",–
